According to PubChem BioAssay AID270 (DTP/NCI, 2004):
The list shows only some results of the screen, not a fair sample: it is rich in T/C values a quarter to a half above the control, in often repeated tests (any T/C) and in doses without a T/C. Other doses and runs of a compound stand elsewhere. T/C is the treated group as % of the vehicle group. Schedules are NCI's codes, taken here to give the interval after Q, in days (D) or hours (H), and the number of doses after X. Some entries give survivors of the animals treated and no T/C: the source files T/C as zero there, which appears to mark a toxic dose or a test without result, not a measured value. Some survivor counts are full or nearly so, which does not show that the dose was tolerated: the source hardly ever lists a survival T/C far under the control, and the zero likely stands for such cases as well. Survivors were counted at the toxicity check, usually on the fifth day, unless a day is given; later deaths do not show. Some doses were run more than once; the results are listed from low to high. Where survival is the endpoint, the PubChem record calls one and a half times the control and up active, and a quarter to a half above the control has no call in these data; cut-offs in other NCI protocols can differ.

System: BDF1 mice, s.c. Lewis lung carcinoma, T/C %
Assay: NCI In Vivo Anticancer Drug Screen. Data for tumor model Lewis Lung Carcinoma (subcutaneous) in B6D2F1 (BDF1) mice
Procedure, shortened: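 Antitumor effect in vivo is scored from survival or tumor burden, reported as treated relative to vehicle controls.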

SMILES: CC(=O)CC(C)(C)N
- T/C (T/C endpoint: mean tumor weight, dose: 22.0 mg/kg/injection, schedule: Q01DX011 (ip), vehicle: saline, evaluated on day 12, higher T/C = larger tumour): 138 % of control
- survivor count (T/C endpoint: mean tumor weight, dose: 150.0 mg/kg/injection, schedule: Q01DX011 (ip), vehicle: methylcellulose (MC), higher T/C = larger tumour): 3 of 6

SMILES: NCCc1ccc(O)c(O)c1
- survivor count (T/C endpoint: median survival time, dose: 300.0 mg/kg/injection, schedule: Q01DX009 (ip), vehicle: saline, higher T/C = longer survival): 10 of 10

SMILES: O=C(CCCN1CCC(O)(c2cccc(C(F)(F)F)c2)CC1)c1ccc(F)cc1
- survivor count (T/C endpoint: median survival time, dose: 100.0 mg/kg/injection, schedule: Q04DX003 (ip), vehicle: saline with Tween-80, higher T/C = longer survival): 2 of 10

SMILES: COC12C(COC(=O)NCCO)C3=C(C(=O)C(C)=C(N)C3=O)N1CC1NC12 (stereo not given)
- survivor count (T/C endpoint: median survival time, dose: 12.5 mg/kg/injection, schedule: Q01DX009 (ip), vehicle: Klucel (hydroxypropylcellulose) (HPC), higher T/C = longer survival): 10 of 10
- survivor count (T/C endpoint: median survival time, dose: 50.0 mg/kg/injection, schedule: Q01DX009 (ip), vehicle: Klucel (hydroxypropylcellulose) (HPC), higher T/C = longer survival): 10 of 10

SMILES: Cc1nnc(NS(=O)(=O)c2ccc(N=Nc3nc4[nH]c(N)nc(=S)c4[nH]3)cc2)s1
- survivor count (T/C endpoint: median survival time, dose: 400.0 mg/kg/injection, schedule: Q01DX009 (ip), vehicle: saline, higher T/C = longer survival): 4 of 10

SMILES: C=C1C(=O)O[C@H]2C=C(C)[C@H]3[C@@H](OC(C)=O)C[C@@](C)(O)[C@@H]3C[C@H]12
- survivor count (T/C endpoint: mean tumor weight, dose: 50.0 mg/kg/injection, schedule: Q01DX011 (ip), vehicle: carboxymethylcellulose (CMC), higher T/C = larger tumour): 0 of 4
- survivor count (T/C endpoint: mean tumor weight, dose: 100.0 mg/kg/injection, schedule: Q01DX011 (ip), vehicle: carboxymethylcellulose (CMC), higher T/C = larger tumour): 0 of 4
- survivor count (T/C endpoint: mean tumor weight, dose: 200.0 mg/kg/injection, schedule: Q01DX011 (ip), vehicle: carboxymethylcellulose (CMC), higher T/C = larger tumour): 0 of 4

SMILES: COC(=O)[C@@]12OC[C@]34[C@H]([C@@H](O)[C@@H]1O)[C@@]1(C)CC(=O)C(O)=C(C)[C@@H]1C[C@H]3OC(=O)[C@H](OC(=O)/C=C(\C)C(C)C)[C@@H]24
- survivor count (T/C endpoint: median survival time, dose: 4.0 mg/kg/injection, schedule: Q01DX009 (ip), vehicle: other, higher T/C = longer survival): 2 of 10

SMILES: C=C1CC/C=C(\C)CCC2C1CC2(C)C (stereo not given)
- survivor count (T/C endpoint: mean tumor weight, dose: 200.0 mg/kg/injection, schedule: Q01DX011 (ip), vehicle: saline, higher T/C = larger tumour): 2 of 6

SMILES: CCOC(=O)C1CCC(NC(=O)N(CCCl)N=O)CC1 (stereo not given)
- T/C (T/C endpoint: median survival time, dose: 20.0 mg/kg/injection, schedule: Q01DX001 (ip), vehicle: gum acacia, higher T/C = longer survival): 130 % of control
- T/C (T/C endpoint: median survival time, dose: 27.0 mg/kg/injection, schedule: Q07DX002 (ip), vehicle: gum acacia, evaluated on day 80, higher T/C = longer survival): 98 % of control
- T/C (T/C endpoint: median survival time, dose: 27.0 mg/kg/injection, schedule: Q07DX002 (ip), vehicle: gum acacia, evaluated on day 84, higher T/C = longer survival): 172 % of control
- T/C (T/C endpoint: median survival time, dose: 27.0 mg/kg/injection, schedule: Q07DX002 (ip), vehicle: gum acacia, evaluated on day 101, higher T/C = longer survival): 90 % of control
- T/C (T/C endpoint: median survival time, dose: 27.0 mg/kg/injection, schedule: Q07DX002 (ip), vehicle: gum acacia, evaluated on day 119, higher T/C = longer survival): 232 % of control
- T/C (T/C endpoint: median survival time, dose: 28.0 mg/kg/injection, schedule: Q07DX002 (ip), vehicle: gum acacia, higher T/C = longer survival): 144 % of control
- survivor count (T/C endpoint: median survival time, dose: 33.0 mg/kg/injection, schedule: Q07DX002 (ip), vehicle: gum acacia, higher T/C = longer survival): 10 of 10 on day 11
- survivor count (T/C endpoint: median survival time, dose: 40.0 mg/kg/injection, schedule: Q07DX002 (ip), vehicle: gum acacia, higher T/C = longer survival): 9 of 10, 9 of 10 on day 11, 10 of 10 on day 11
- survivor count (T/C endpoint: median survival time, dose: 45.0 mg/kg/injection, schedule: Q01DX001 (ip), vehicle: gum acacia, higher T/C = longer survival): 10 of 10 on day 11
- survivor count (T/C endpoint: median tumor weight (est.), dose: 44.0 mg/kg/injection, schedule: Q01DX001 (ip), vehicle: gum acacia, higher T/C = larger tumour): 6 of 10 on day 16

SMILES: CN(C)Nc1ncnc2nc[nH]c12
- survivor count (T/C endpoint: mean tumor weight, dose: 25.0 mg/kg/injection, schedule: Q01DX011 (ip), vehicle: saline, higher T/C = larger tumour): 0 of 6

SMILES: O=S(=O)(Cl)c1cc(Cl)c(Cl)cc1Cl
- T/C (T/C endpoint: mean tumor weight, dose: 200.0 mg/kg/injection, schedule: Q01DX011 (ip), vehicle: other, evaluated on day 12, higher T/C = larger tumour): 127 % of control
- survivor count (T/C endpoint: mean tumor weight, dose: 900.0 mg/kg/injection, schedule: Q01DX011 (ip), vehicle: other, higher T/C = larger tumour): 0 of 6

SMILES: CC(=O)OC(C)C1C2=C(C(=O)CC1(C)O)C(=O)c1c(ccc(-c3ccc4c(c3O)C(=O)C3=C(C4=O)C(C(C)OC(C)=O)C(C)(O)CC3=O)c1O)C2=O (stereo not given)
- T/C (T/C endpoint: median survival time, dose: 0.19 mg/kg/injection, schedule: Q01DX009 (ip), vehicle: saline + alcohol, higher T/C = longer survival): 125 % of control
- survivor count (T/C endpoint: median survival time, dose: 3.13 mg/kg/injection, schedule: Q01DX009 (ip), vehicle: saline with Tween-80, higher T/C = longer survival): 10 of 10
- survivor count (T/C endpoint: median survival time, dose: 6.25 mg/kg/injection, schedule: Q01DX009 (ip), vehicle: saline with Tween-80, higher T/C = longer survival): 10 of 10
- survivor count (T/C endpoint: median survival time, dose: 12.5 mg/kg/injection, schedule: Q01DX009 (ip), vehicle: saline with Tween-80, higher T/C = longer survival): 9 of 10
- survivor count (T/C endpoint: median survival time, dose: 25.0 mg/kg/injection, schedule: Q01DX009 (ip), vehicle: saline with Tween-80, higher T/C = longer survival): 9 of 10
